Measurements from publication PMC9735685.

Amino acid sequences for entries named in this document (tags omitted). A change or cut given only in a name is not applied to a line headed by its entry.
UniProt A0A0U2JSS8: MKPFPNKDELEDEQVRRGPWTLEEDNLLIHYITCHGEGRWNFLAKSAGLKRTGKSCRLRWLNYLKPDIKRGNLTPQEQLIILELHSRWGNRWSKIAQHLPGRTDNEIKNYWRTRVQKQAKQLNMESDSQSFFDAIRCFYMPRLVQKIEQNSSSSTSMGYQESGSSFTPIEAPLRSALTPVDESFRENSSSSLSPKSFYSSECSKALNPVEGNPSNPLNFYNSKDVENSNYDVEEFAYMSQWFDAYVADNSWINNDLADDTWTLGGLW

Columns and labels:
[1] = target: T1, AtRCAR1 (BK-AtRCAR1) (Arabidopsis) (UniProt Q84MC7); assay: two-hybrid; AD-FtMYB22 (pGADT7) + BK-AtRCARs (pGBKT7) in yeast AH109; growth on SD/-Trp/-Leu/-His/-Ade medium containing 10 uM or 30 uM ABA
T1 sequence: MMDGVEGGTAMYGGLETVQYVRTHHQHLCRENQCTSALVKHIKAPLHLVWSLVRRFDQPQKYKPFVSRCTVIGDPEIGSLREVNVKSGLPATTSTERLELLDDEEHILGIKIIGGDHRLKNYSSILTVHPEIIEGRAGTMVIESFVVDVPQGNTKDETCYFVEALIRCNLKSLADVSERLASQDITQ

[2] = target: T2, AtRCAR2 (BK-AtRCAR2) (Arabidopsis) (UniProt Q1ECF1); assay: as above
T2 sequence: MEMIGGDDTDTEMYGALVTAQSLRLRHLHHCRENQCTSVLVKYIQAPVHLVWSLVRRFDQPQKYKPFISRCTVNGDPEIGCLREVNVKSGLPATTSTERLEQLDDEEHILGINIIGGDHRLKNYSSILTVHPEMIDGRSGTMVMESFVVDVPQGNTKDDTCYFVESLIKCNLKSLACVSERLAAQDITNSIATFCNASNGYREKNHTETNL

[3] = target: T1, AtRCAR1 (BK-AtRCAR1) (Arabidopsis); assay: two-hybrid; AD-FtMYB22 (pGADT7) + BK-AtRCARs (pGBKT7) co-transformed into yeast AH109; growth on SD/-Trp/-Leu/-His/-Ade medium, no ABA added
[4] = target: T2, AtRCAR2 (BK-AtRCAR2) (Arabidopsis); assay: as above

Measured: binding

FtMYB22 (AD-FtMYB22) (from UniProt A0A0U2JSS8)
binds: [1] | [2] | [3] | [4]

These are yes or no findings as the source states them, for the method shown. A result given as binding can be weak or reduced; the word gives no strength.
